The experiment addresses T1, BVES-3xHA (human blood vessel epicardial substance, HA-tagged), delivered by AAV9 into mouse skeletal muscle (human) (UniProt Q8NE79).
T1 sequence: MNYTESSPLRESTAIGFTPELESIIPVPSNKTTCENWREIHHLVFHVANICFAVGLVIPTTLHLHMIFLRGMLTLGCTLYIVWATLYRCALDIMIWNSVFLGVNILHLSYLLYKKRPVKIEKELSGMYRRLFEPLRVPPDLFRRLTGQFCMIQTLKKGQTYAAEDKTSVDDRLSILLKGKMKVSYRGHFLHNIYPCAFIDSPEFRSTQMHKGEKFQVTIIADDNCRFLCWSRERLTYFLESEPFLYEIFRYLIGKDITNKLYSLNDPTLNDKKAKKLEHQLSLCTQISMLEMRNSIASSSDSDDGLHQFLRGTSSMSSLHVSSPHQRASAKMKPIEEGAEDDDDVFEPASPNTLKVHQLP
As to the kind of experiment: affinity purification with mass spectrometry; anti-HA magnetic beads, 1 h at 4 °C, on gastrocnemius muscle lysates of BVES-KO mice injected with AAV9-BVES-3xHA (WT mice as control); lysis buffer 25 mM Tris-HCl pH 7.4, 150 mM NaCl, 5% glycerol, 1% Triton X-100, 2 mM EDTA, 1 mM DTT; four washes; background of the control sample subtracted.

Chains of the proteins cited; added tags and fusions are not shown.
UniProt P11531: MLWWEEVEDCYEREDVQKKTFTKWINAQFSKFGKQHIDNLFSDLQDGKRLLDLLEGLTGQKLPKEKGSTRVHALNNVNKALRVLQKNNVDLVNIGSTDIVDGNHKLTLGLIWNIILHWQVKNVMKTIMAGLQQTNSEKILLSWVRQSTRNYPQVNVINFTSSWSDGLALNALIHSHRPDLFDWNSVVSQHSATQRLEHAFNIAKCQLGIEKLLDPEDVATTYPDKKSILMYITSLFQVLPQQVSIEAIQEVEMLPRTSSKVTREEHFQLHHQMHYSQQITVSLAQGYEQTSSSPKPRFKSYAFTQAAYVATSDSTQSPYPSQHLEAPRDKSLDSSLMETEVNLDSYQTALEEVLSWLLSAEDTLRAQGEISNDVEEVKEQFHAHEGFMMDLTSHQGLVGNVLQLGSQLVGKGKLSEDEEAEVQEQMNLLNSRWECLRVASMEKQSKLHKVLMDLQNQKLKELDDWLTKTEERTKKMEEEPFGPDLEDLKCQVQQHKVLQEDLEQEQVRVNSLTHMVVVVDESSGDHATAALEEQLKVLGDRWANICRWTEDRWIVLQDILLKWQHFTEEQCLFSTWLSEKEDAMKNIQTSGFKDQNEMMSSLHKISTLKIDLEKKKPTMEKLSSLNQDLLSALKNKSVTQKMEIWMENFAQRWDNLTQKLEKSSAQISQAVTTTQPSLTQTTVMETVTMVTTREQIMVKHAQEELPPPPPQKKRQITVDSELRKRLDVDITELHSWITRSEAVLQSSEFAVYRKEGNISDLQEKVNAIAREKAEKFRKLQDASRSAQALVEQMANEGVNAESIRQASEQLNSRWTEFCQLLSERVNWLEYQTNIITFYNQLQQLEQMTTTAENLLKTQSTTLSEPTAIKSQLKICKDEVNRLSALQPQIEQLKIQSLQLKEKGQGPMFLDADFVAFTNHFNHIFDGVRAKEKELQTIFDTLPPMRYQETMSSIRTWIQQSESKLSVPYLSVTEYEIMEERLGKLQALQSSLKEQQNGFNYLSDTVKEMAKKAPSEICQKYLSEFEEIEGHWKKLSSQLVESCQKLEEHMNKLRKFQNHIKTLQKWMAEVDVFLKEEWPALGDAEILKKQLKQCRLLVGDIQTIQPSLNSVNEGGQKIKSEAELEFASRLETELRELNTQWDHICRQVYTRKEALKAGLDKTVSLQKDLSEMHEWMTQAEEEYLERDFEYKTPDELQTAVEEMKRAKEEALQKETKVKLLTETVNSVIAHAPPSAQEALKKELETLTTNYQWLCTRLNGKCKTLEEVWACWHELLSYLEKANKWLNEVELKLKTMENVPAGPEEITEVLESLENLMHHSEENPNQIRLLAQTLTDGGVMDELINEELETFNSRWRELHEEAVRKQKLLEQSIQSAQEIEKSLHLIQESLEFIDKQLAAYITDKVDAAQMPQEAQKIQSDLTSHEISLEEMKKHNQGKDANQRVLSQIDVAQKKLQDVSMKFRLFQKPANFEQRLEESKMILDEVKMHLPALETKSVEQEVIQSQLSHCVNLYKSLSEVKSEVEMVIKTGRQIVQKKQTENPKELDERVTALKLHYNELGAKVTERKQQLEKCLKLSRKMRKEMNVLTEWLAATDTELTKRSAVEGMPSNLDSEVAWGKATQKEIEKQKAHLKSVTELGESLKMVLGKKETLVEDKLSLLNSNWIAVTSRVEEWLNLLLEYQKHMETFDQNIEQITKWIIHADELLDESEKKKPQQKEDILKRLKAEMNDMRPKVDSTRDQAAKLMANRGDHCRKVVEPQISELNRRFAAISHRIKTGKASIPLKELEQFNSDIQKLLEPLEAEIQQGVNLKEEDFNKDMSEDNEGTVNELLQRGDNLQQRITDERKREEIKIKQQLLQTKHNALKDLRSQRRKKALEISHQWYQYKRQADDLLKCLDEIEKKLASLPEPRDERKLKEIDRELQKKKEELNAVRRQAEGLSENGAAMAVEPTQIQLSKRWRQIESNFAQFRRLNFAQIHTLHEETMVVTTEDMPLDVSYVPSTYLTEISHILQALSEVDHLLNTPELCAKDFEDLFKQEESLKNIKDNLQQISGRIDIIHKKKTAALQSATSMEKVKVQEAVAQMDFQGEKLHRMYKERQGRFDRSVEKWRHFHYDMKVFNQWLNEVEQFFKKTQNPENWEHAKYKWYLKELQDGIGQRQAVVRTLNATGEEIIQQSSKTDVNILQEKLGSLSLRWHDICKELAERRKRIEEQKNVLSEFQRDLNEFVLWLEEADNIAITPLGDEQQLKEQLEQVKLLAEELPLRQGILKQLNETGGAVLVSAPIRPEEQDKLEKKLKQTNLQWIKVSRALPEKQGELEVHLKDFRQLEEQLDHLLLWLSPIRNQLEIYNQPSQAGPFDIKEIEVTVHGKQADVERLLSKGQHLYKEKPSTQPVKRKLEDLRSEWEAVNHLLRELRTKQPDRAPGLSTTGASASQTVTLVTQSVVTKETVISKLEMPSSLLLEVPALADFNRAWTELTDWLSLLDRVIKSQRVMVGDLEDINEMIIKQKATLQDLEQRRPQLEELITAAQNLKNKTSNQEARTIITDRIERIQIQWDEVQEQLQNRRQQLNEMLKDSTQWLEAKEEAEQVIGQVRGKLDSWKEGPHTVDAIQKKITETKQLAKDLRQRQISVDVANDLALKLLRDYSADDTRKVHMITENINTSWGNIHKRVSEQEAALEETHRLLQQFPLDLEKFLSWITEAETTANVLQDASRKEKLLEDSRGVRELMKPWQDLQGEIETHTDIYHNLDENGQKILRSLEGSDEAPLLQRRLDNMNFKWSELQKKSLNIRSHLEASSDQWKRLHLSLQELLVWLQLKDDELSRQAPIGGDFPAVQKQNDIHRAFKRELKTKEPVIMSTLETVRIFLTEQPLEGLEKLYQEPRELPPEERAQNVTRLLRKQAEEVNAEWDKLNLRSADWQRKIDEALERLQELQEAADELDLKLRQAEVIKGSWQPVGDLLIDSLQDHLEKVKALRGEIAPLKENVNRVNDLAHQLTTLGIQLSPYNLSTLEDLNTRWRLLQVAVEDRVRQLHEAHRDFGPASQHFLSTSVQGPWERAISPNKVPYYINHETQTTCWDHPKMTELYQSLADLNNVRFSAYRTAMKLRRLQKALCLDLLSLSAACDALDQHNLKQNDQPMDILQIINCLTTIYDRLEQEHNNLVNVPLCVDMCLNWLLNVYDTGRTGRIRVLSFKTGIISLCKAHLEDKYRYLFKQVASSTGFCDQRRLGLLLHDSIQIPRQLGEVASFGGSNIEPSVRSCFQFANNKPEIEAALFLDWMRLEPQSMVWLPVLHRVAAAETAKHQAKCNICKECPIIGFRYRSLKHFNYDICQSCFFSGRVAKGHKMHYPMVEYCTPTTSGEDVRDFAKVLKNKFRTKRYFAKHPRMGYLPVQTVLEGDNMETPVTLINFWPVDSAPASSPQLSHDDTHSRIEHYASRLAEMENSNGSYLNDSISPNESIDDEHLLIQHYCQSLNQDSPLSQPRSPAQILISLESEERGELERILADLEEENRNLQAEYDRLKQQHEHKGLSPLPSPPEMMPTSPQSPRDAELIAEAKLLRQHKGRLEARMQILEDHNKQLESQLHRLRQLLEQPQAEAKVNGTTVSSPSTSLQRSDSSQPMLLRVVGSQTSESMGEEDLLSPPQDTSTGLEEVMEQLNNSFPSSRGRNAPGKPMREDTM
UniProt Q9ESD7: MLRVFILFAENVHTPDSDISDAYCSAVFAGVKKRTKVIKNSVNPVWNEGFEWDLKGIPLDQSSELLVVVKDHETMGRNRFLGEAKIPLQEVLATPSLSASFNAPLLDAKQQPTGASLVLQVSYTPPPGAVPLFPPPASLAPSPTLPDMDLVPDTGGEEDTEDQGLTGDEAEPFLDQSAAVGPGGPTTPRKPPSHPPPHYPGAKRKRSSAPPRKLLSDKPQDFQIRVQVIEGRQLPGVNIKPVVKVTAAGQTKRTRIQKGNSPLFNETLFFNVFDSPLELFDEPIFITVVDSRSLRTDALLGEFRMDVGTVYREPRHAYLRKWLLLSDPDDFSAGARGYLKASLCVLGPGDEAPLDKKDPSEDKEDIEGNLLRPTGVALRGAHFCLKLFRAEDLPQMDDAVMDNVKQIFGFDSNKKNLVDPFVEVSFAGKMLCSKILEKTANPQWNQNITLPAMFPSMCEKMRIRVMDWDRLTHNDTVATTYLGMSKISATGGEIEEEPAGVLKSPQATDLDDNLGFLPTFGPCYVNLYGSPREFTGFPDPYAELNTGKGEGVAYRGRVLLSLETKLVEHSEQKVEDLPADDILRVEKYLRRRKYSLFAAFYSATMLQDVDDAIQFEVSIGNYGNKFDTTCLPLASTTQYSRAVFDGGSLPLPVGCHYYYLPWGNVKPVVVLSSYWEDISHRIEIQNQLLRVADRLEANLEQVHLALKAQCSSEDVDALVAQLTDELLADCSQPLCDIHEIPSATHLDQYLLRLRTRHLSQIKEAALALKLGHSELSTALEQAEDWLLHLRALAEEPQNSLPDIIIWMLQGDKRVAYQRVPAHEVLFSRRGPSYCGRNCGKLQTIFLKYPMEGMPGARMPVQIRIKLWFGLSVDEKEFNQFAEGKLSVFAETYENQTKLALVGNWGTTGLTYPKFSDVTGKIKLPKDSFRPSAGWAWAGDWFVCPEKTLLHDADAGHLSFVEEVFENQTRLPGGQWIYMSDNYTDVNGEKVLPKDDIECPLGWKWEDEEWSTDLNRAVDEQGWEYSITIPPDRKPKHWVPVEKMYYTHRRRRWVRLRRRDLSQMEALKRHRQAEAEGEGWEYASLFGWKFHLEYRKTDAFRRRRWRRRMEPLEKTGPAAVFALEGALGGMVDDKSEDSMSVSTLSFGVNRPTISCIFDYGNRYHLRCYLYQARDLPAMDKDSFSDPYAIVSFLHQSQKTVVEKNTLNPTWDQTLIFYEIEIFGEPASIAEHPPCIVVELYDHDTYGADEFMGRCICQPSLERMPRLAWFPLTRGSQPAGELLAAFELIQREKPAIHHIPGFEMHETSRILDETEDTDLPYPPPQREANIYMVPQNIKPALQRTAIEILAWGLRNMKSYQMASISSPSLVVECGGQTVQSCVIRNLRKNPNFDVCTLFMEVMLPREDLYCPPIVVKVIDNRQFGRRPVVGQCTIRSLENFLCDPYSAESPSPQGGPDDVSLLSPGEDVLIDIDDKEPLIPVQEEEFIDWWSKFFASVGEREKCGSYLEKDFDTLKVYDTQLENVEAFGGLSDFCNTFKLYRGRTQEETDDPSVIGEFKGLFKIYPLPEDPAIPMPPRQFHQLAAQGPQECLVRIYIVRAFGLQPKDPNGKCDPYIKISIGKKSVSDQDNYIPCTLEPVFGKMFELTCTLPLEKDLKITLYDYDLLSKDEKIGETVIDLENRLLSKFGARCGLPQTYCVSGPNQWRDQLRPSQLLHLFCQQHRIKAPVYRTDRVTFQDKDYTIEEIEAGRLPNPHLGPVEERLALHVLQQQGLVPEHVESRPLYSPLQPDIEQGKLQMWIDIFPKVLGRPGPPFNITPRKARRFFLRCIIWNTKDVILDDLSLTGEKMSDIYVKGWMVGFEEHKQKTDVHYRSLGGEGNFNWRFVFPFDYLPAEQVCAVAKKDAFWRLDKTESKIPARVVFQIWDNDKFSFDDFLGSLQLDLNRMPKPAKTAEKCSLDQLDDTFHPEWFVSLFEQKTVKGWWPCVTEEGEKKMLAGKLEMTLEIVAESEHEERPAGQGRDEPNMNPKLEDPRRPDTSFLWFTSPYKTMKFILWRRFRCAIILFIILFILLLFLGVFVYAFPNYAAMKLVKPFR

Results are given in words; binding and its absence hold for the method and conditions named. Binding seen in cells or lysates may run through a third protein. These calls come from enrichment with a bait or labelling near it, and not all partners need be listed. Where a sequence is shown, tags or fusion partners need not be part of it.

For “dystrophin, endogenous in mouse skeletal muscle (from UniProt P11531 1-3678)”, the binding entry is on record as “binds”.

Take “dysferlin, endogenous in mouse skeletal muscle (from UniProt Q9ESD7 1-2090)”: the binding result is recorded as “binds”.

B1: ADCY9 (adenylyl cyclase 9), endogenous in mouse skeletal muscle (enzyme, UniProt P51830 1-1353)
chain: MASSPHQQLLHHHSTEVSCDSSGDSNSVRVKINPKQLSSNTHPKHCKYSISSSCSSSGDSGGLPRRVGGGGRLRRQKKLPQLFERASSRWWDPKFDSMNLEEACLERCFPQTQRRFRYALFYVGFACLLWSIYFAVHMKSKVIVMVVPALCFLVVCVGFFLFTFTKLYARHYAWTSLALTLLVFALTLAAQFQVWTPLSGRVDSSNHTLTATPADTCLSQVGSFSICIEVLLLLYTVMQLPLYLSLFLGVVYSVLFETFGYHFRNEDCYPSPGPGALHWELLSRALLHVCIHAIGIHLFVMSQVRSRSTFLKVGQSIMHGKDLEVEKALKERMIHSVMPRIIADDLMKQGDEESENSVKRHATSSPKNRKKKSSIQKAPIAFRPFKMQQIEEVSILFADIVGFTKMSANKSAHALVGLLNDLFGRFDRLCEQTKCEKISTLGDCYYCVAGCPEPRADHAYCCIEMGLGMIKAIEQFCQEKKEMVNMRVGVHTGTVLCGILGMRRFKFDVWSNDVNLANLMEQLGVAGKVHISEATAKYLDDRYEMEDGRVIERLGQSVVADQLKGLKTYLISGQRAKESHCSCAEALLSGFEVIDDSRESSGPRGQGTASPGSVSDLAQTVKTFDNLKTCPSCGITFAPKSEAGAEGGTVQNGCQDEPKTSTKASGGPNSKTQNGLLSPPAEEKLTNSQTSLCEILQEKGRWAGVSLDQSALLPLRFKNIREKTDAHFVDVIKEDSLMKDYFFKPPINQFSLNFLDQELERSYRTSYQEEVIKNSPVKTFASATFSSLLDVFLSTTVFLILSITCFLKYGATATPPPPAALAVFGADLLLEVLSLIVSIRMVFFLEDVMTCTKWLLEWIAGWLPRHCIGAILVSLPALAVYSHITSEFETNIHVTMFTGSAVLVAVVHYCNFCQLSSWMRSSLATIVGAGLLLLLHISLCQDSSIVMSPLDSAQNFSAQRNPCNSSVLQDGRRPASLIGKELILTFFLLLLLVWFLNREFEVSYRLHYHGDVEADLHRTKIQSMRDQADWLLRNIIPYHVAEQLKVSQTYSKNHDSGGVIFASIVNFSEFYEENYEGGKECYRVLNELIGDFDELLSKPDYNSIEKIKTIGATYMAASGLNTAQCQEGGHPQEHLRILFEFAKEMMRVVDDFNNNMLWFNFKLRVGFNHGPLTAGVIGTTKLLYDIWGDTVNIASRMDTTGVECRIQVSEESYRVLSKMGYDFDYRGTVNVKGKGQMKTYLYPKCTDNGVVPQHQLSISPDIRVQVDGSIGRSPTDEIANLVPSVQYSDKASLGSDDSTQAKEARLSSKRSWREPVKAEERFPFGKAIEKDSCEDIGVEEASELSKLNVSKSV
B1: the binding entry is recorded as “binds”.
